This is an account of results in publication PMC11288436.

Results are given in words; binding and its absence hold for the method and conditions named. In cells and extracts the contact can be indirect. Some entries that bind do so weakly or less than the wild type. Sequences can lack the tags named with a protein.

The target of this test is T1, Myc-tagged Rab5A (porcine) (UniProt Q06AU6).
T1 sequence: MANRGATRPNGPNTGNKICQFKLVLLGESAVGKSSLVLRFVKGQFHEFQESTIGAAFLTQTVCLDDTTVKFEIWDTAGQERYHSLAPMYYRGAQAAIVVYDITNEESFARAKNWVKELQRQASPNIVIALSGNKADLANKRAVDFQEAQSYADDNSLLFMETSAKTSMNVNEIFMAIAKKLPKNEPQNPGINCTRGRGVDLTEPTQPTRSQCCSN
Nature of the test: co-IP.

B1: Flag-tagged TMEM239 (transmembrane protein 239), expressed in HEK293T cells (protein, UniProt F1S8A1 1-152)
chain: VMQQLRVETDATGAGEGPQRAVPWTAWLTRDSWVRWCMCHMPPSWAQWWITSGWRQPLQRVLWGLEGILYLLLALMLCHALFTTGSHLLSSLWPVVAAAWRHLLPAVLLLALSALPALLFMASFLLLFSTLLSLVGLLTSMSHPGLAQDLDQ
For B1, the binding entry is reported as “binds”.
